The whole screen tested about 53,000 sequences, of which about 3,700 (7%) were called active.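 Rule for the calls: active = gene knockdowns whose robust z-score for IL-1 alpha signal is at least 2 or at most -2, so actives lie on both sides; inactive = the rest.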 The list shows a part of the results.
assay: Components of the Cytosolic LPS Sensing Pathway: Gene Identification via Genome-wide siRNA Screen; details: RAW264.7 macrophages, IL-1a HTRF, actives lie on both sides, screened at 100 nM (by protocol), cells primed 5 h with Pam3CSK4 first;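 note: robust z of the log signal after scaling to non-targeting control siRNA wells of the plate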
Method in brief: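 Cells (RAW264.7, 1×10^4 per well) were transfected with siRNA at 100 nM and cultured 48h at 37 degrees C. Pam3CSK4 was added for 5 hours; LipidA transfection followed for 24 hour. IL-1a was then measured by HTRF.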

Sequence	z-score
GGAAGAAGGCAGAAGAGUUTT against Ube2l6	inactive: -1.94
GGCCCAUAUUGGCUACAUUTT against Skint4	inactive: -1.18
GGGAAAGUGCUCUAGCAAGTT against Rbm34	inactive: 0.71
GGUUAUGAGAAUCUAAGAUTT against Ypel5	inactive: -1.21
CCAUAAGCGAAAUGCCUUCTT against Areg	inactive: 0.201
CGAAGUUACGAGCAUCCACTT against Crhr2	active: 3.81
GACACCACCAUCAAUCAACTT against Olfr338	inactive: -0.63
GCAUAGUUGGAACCGUAUUTT against Tdpoz3	active: 2.25
GGAACUAGAGACACUGAUUTT against Kcnk10	inactive: 0.721
GGUGAAAAUGACCUGGUGATT against Cd300ld	inactive: -0.116
GGAGGUAGGAAUAUGACUUTT against Klrb1c	inactive: 0.0825
GGCCCAGUCAUGUCAAAUCTT against Olfr1346	inactive: -1.11
GGCCAUCUUGGACAGCAAGTT against Nt5m	inactive: -1.2
CGUUACCAUGAGAGUUAAUTT against Pcdhb19	active: 3.83
GGACGGUGAGAUCUGUUUGTT against Clps	inactive: 0.451
GGAACUACAUCAUUCAGAATT against Tspyl1	inactive: 0.238
GCAACUGCCUAGGCUUGAUTT against Slc30a7	active: 4.79
GGAGAAAGCAGAAAUUGAATT against Mfap1a	inactive: -1.31
GCUGGUGUCGGCAAAUCCUTT against Wnk1	inactive: -0.62
GCCUCUGUUCCAUCUUGGATT against F830104G03Rik	inactive: 1.61
GGACAUCAAGAAGGACAAATT against Ppp2r5d	inactive: 0.874
GGGAUUAAUAUUUUCCUCUTT against Pttg1ip	inactive: -0.42
GGAGUUCCUCAAACAGGAGTT against Nlrp4a	inactive: -0.0725

Sequence	z-score
GGUUCUGUUUGUCACAUUCTT against Olfr1234	inactive: 0.201
CCGUUUUCAUGCAUUGUUGTT against Olfr1377	inactive: -0.609
GGUUGUGAACAGCAUGUACTT against Ccr9	inactive: -1.78
GAUCAUUCUCUUUUUCCUCTT against Olfr1095	inactive: -0.435
GCGGGUUAUCCUCUACUACTT against Col15a1	inactive: 1.29
GCCUAAACAUUCAAAUCCCTT against Abcc3	inactive: -0.5
GGACUGUACAGUGGCAUUATT against Cd70	inactive: -1.69
CCCACCUUCAAGCAAGAACTT against Ifnk	active: -2.51
GGCAGAGGAUCGAGAAAAGTT against Dhrs4	inactive: 0.619
GGGUUUGGCUCGGUGUAUATT against Mos	inactive: -0.929
GGAAUUAUGAUGUAGACAGTT against Garre1	inactive: 0.662
CCAUAAUUCAGCUAGACCUTT against Axin1	inactive: 0.201
CGAACUUUUCAGCAGAUACTT against Rprd1b	inactive: -0.798
GGAACUGACAGAGCUUGAATT against Krtcap3	inactive: 0.15
GCUGUACCCGAAUGAGUUUTT against Mgat2	active: 2.54
CCUGUCCUCUGGGCAUAAUTT against Olfr1276	inactive: -0.635
GGUCAUGUAUUUCCUCAUCTT against Omp	inactive: 0.542
GGAUGUCACUCUUGCAUUGTT against Olfr948	inactive: 0.75
CCUACCCAAACCUACUAAATT against Gpt2	inactive: -0.168
GGCAUUGAGAUGAAAUGAATT against 4933427E11Rik	active: -2.5
CGGGAUAUUAGGUUAUUCCTT against Csad	inactive: 0.0716
GGUUUUGAGAUUGAAAGAATT against Myof	inactive: -0.344
CCAGAUUUUUACCAUGAAGTT against Slc2a5	inactive: 0.147

Exported bar-delimited: part of the list above
Sequence | z-score
GAUCAUUCUCUUUUUCCUCTT against Olfr1095 | inactive: -0.435
GCGGGUUAUCCUCUACUACTT against Col15a1 | inactive: 1.29

Carrying on.

Sequence	z-score
GGCAGCACUAGGACACAUATT against Tnfaip8l2	inactive: 0.0928
GGCAGAGUUUCAAUGAGGUTT against Rras	inactive: -1.06
CGGAGCAAUACAAACUUUATT against Olfr1263	inactive: 0.643
GCUUCCACAACUCAUAAAUTT against Esd	inactive: -0.0597
GCUAAUCAACAAUGUCGCCTT against Atp5b	inactive: 0.781
GGCUCUUUCAACGUAAAUUTT against Fan1	active: -2.72
GGAUUUGACACUGCUCCACTT against Arhgef6	inactive: 0.0393
CCUAAACUCAGUGCCUCAGTT against Mrps36	inactive: 0.579
GGUCCUGUAUAAGACAGAATT against Fst	inactive: 1.85
GGCUCAACAAGCUUGUCUATT against Adtrp	inactive: -0.557
GGUCUAUUAUGGCUUAAAGTT against Insl5	inactive: -1.93
GGUGUGGUCCUUGCAUCUUTT against Cyp2d34	inactive: 0.763
GGUGAGAUUUGUGGCUUUATT against Clstn1	inactive: 0.521
CGCCGCAGUAUUAAUGGCUTT against Nxph4	inactive: 0.225
GAAACUAGUCCUACUCUUUTT against Defa1	inactive: 0.6
GCUAUGAACCUCUAGGCAUTT against Bcl6b	inactive: 0.136
GCAGGCUUGUUCAAAUCCGTT against Pcm1	inactive: 1.1
GCGAGGUGCCAAUAUUUUCTT against Btbd9	inactive: 2
CGGGUUGUACCUGAGUCUGTT against Tmem120a	inactive: -0.352
CCCAUAGGGCUGAGGAACATT against Zfp53	inactive: -0.905
GGCUUUAGCUUACCAGAUGTT against Abcd2	inactive: -1.25
GGAUGGAUCUAAAGACACUTT against 4930544M13Rik	inactive: 1.51

As entered above.
z-score with GCGAGGUGCCAAUAUUUUCTT against Btbd9 reads inactive: 2
z-score with CCUAAACUCAGUGCCUCAGTT against Mrps36 reads inactive: 0.579
z-score with GCAGGCUUGUUCAAAUCCGTT against Pcm1 reads inactive: 1.1

Source: PubChem BioAssay AID1508600 (Functional Genomics Laboratory (NCATS/FGL), 2020)
